Source: paper PMC6853637
These are yes or no findings as the source states them, for the method shown. For some of these results: A result given as binding can be weak or reduced; the word gives no strength. For some of these results: In cells and extracts the contact can be indirect. For some of these results: Where a sequence is shown, tags or fusion partners need not be part of it.

T1: FLAG/HA-Pasha (DGCR8) (human) (UniProt Q8WYQ5)
T1 sequence: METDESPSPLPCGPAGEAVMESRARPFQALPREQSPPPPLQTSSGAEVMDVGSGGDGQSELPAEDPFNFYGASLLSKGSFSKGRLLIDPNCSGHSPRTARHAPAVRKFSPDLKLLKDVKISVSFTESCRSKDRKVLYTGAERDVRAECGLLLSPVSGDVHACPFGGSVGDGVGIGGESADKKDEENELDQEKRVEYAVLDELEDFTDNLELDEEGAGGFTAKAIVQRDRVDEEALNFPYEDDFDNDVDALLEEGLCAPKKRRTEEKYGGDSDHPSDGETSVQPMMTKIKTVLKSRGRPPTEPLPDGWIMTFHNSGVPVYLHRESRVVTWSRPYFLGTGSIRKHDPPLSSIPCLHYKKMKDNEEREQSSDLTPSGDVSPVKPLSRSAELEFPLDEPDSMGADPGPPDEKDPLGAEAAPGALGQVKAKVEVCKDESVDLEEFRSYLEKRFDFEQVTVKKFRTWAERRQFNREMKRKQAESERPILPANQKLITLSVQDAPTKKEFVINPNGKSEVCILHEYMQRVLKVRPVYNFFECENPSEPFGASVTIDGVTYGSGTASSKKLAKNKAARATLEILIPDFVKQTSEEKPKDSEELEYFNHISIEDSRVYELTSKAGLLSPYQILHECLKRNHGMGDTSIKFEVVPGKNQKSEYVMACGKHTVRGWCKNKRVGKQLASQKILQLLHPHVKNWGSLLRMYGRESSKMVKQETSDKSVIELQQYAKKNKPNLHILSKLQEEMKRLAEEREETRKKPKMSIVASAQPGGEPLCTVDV


Columns and labels:
[1] = molecular target: T1, FLAG/HA-Pasha (DGCR8) (human); experiment: co-IP; tagged cDNAs transiently transfected into HEK293 cells; 1% Triton X-100 lysis buffer, sonicated; immunoprecipitation with anti-FLAG or anti-MYC antibodies
[2] = molecular target: nucleoplasmic domain of Sun1 Δ7,Δ9 (mouse); experiment: two-hybrid; ProNet Y2H system (Myriad Genetics); nucleoplasmic domain of Sun1 Δ7,Δ9 as bait; uterus/mammary gland and brain libraries
[3] = molecular target: SUN1 Δ7 (endogenous isoform precipitated by the Sun1 Δ7 antibody) (mouse (endogenous in C2C12)); experiment: co-IP; endogenous proteins; C2C12 myotube nuclear fraction lysate (1% Triton X-100 lysis buffer); immunoprecipitation with SUN1 isoform antibodies (Δ7 and Δ7–9), anti-HA as control; Drosha detected by blot
[4] = molecular target: SUN1 Δ7–9 isoform (mouse (endogenous in C2C12)); experiment: as above
[5] = molecular target: human SUN1Δ6-FLAG/MYC (human); experiment: co-IP; tagged cDNAs transiently transfected into HEK293 cells; 1% Triton X-100 lysis buffer, sonicated; immunoprecipitation with anti-FLAG or anti-MYC antibodies

| Molecule | binding [2] | binding [5] | further results |
| --- | --- | --- | --- |
| mouse MYC-SUN1 Δ7,Δ9 |  |  | binding [1]: binds |
| Drosha protein domain spanning amino acids 57–674 (domain or fragment, UniProt Q9NRR4 57-674) SAPSTTFSNSPAPNFLPPRPDFVPFPPPMPPSAQGPLPPCPIRPPFPNHQMRHPFPVPPCFPPMPPPMPCPNNPPVPGAPPGQGTFPFMMPPPSMPHPPPPPVMPQQVNYQYPPGYSHHNFPPPSFNSFQNNPSSFLPSANNSSSPHFRHLPPYPLPKAPSERRSPERLKHYDDHRHRDHSHGRGERHRSLDRRERGRSPDRRRQDSRYRSDYDRGRTPSRHRSYERSRERERERHRHRDNRRSPSLERSYKKEYKRSGRSYGLSVVPEPAGCTPELPGEIIKNTDSWAPPLEIVNHRSPSREKKRARWEEEKDRWSDNQSSGKDKNYTSIKEKEPEETMPDKNEEEEEELLKPVWIRCTHSENYYSSDPMDQVGDSTVVGTSRLRDLYDKFEEELGSRQEKAKAARPPWEPPKTKLDEDLESSSESECESDEDSTCSSSSDSEVFDVIAEIKRKKAHPDRLHDELWYNDPGQMNDGPLCKCSAKARRTGIRHSIYPGEEAIKPCRPMTNNAGRLFHYRITVSPPTNFLTDRPTVIEYDDHEYIFEGFSMFAHAPLTNIPLCKVIRFNIDYTIHFIEEMMPENFCVKGLELFSLFLFRDILELYDWNLKGPLFEDSPP | binds |  |  |
| Drosha protein domain spanning amino acids 204–727 (domain or fragment, UniProt Q9NRR4 204-727) FRHLPPYPLPKAPSERRSPERLKHYDDHRHRDHSHGRGERHRSLDRRERGRSPDRRRQDSRYRSDYDRGRTPSRHRSYERSRERERERHRHRDNRRSPSLERSYKKEYKRSGRSYGLSVVPEPAGCTPELPGEIIKNTDSWAPPLEIVNHRSPSREKKRARWEEEKDRWSDNQSSGKDKNYTSIKEKEPEETMPDKNEEEEEELLKPVWIRCTHSENYYSSDPMDQVGDSTVVGTSRLRDLYDKFEEELGSRQEKAKAARPPWEPPKTKLDEDLESSSESECESDEDSTCSSSSDSEVFDVIAEIKRKKAHPDRLHDELWYNDPGQMNDGPLCKCSAKARRTGIRHSIYPGEEAIKPCRPMTNNAGRLFHYRITVSPPTNFLTDRPTVIEYDDHEYIFEGFSMFAHAPLTNIPLCKVIRFNIDYTIHFIEEMMPENFCVKGLELFSLFLFRDILELYDWNLKGPLFEDSPPCCPRFHFMPRFVRFLPDGGKEVLSMHQILLYLLRCSKALVPEEEIANMLQWEE | binds |  |  |
| Drosha (endogenous, C2C12 myotubes) (protein, UniProt Q5HZJ0 1-1373) MQGNTCHRMSYHPGRGCPRGRGGHGARPSAPAFRPQNLRLLHPQQPPAQYQYEPPSAPSSSYSNSQAPSFMPPRPDFVPYPPPAAPSAQGPLPPCPVRPPYPNHQMRHPFPVPPCFPPMPPPMPCPNNPPASGAPPGQGTFPFMVPPPSMPHPPPPPVMPQQVNYQYPPGYSHSFPPPGFNSYQNNSSSFPPSANSSSTPHFRHLPPYSLPKAQNERRSPERLKHYDDHRHRDHSHGRGERHRSLERRERGRSPERRRPESRYRSDYDRGRTPPPRHRSYERSRERDRERHRHREARRSPSLERSYKKEYKRSGRSYALPVAPEPAGCTPELPGEMIKTTESWAPPPENVNHRSPSREKKRARWEEEKDRWSDSQGSGKEKNYTSIKEKEAEEVPPEKTEEEEEELLKPVWIRCTHSESYYSSDPMDQVGDSTVVGTSRLRDLYDKFEEELGNRQEKAKAARPPWEPPKTKLDEDLESSSESECETDDDSTCSSSSDSEVFDVIAEIKRKKAHPDRLHDELWYNDPGQMNDGPLCKCSAKARRTGIRHSIYPGEEAIKPCRPMTNNAGRLFHYRITVSPPTNFLTDRPTVIEYDDHEYIFEGFSMFAHAPLTNIPLCKVIRFNIDYTIHFIEEMMPENFCVKGLELFSLFLFRDILELYDWNLKGPLFEDSPPCCPRFHFMPRFVRFLPDGGKEVLSMHQILLYLLRCSKALVPEEEIANMLQWEELEWQKYAEECKGMIVTNPGTKPSSVRIDQLDREQFNPEVITFPIIVHFGIRPAQLSYAGDPQYQKLWKSYVKLRHLLANSPKVKQTDKQKLAQREEALQKIRQKNTMRREVTVELSSQGFWKTGIRSDVCQHAMMLPVLTHHIRYHQCLMHLDKLIGYTFQDRCLLQLAMTHPSHHLNFGMNPDHARNSLSNCGIRQPKYGDRKVHHMHMRKKGINTLINIMSRLGQDDPTPSRINHNERLEFLGDAVVEFLTSVHLYYLFPSLEEGGLATYRTAIVQNQHLAMLAKKLELDRFMLYAHGPDLCRESDLRHAMANCFEALIGAVYLEGSLEEAKQLFGRLLFNDPDLREVWLNYPLHPLQLQEPNTDRQLIETSPVLQKLTEFEEAIGVIFTHVRLLARAFTLRTVGFNHLTLGHNQRMEFLGDSIMQLVATEYLFIHFPDHHEGHLTLLRSSLVNNRTQAKVAEELGMQEYAITNDKTKRPVALRTKTLADLLESFIAALYIDKDLEYVHTFMNVCFFPRLKEFILNQDWNDPKSQLQQCCLTLRTEGKEPDIPLYKTLQTVGPSHARTYTVAVYFKGERIGCGKGPSIQQAEMGAAMDALEKYNFPQMAHQKRFIERKYRQELKEMRWEREHQEREPEEAEDIKK |  |  | binding [3]: binds; binding [4]: no binding |
| FLAG/HA-Pasha (DGCR8) (protein, UniProt Q8WYQ5 1-773) METDESPSPLPCGPAGEAVMESRARPFQALPREQSPPPPLQTSSGAEVMDVGSGGDGQSELPAEDPFNFYGASLLSKGSFSKGRLLIDPNCSGHSPRTARHAPAVRKFSPDLKLLKDVKISVSFTESCRSKDRKVLYTGAERDVRAECGLLLSPVSGDVHACPFGGSVGDGVGIGGESADKKDEENELDQEKRVEYAVLDELEDFTDNLELDEEGAGGFTAKAIVQRDRVDEEALNFPYEDDFDNDVDALLEEGLCAPKKRRTEEKYGGDSDHPSDGETSVQPMMTKIKTVLKSRGRPPTEPLPDGWIMTFHNSGVPVYLHRESRVVTWSRPYFLGTGSIRKHDPPLSSIPCLHYKKMKDNEEREQSSDLTPSGDVSPVKPLSRSAELEFPLDEPDSMGADPGPPDEKDPLGAEAAPGALGQVKAKVEVCKDESVDLEEFRSYLEKRFDFEQVTVKKFRTWAERRQFNREMKRKQAESERPILPANQKLITLSVQDAPTKKEFVINPNGKSEVCILHEYMQRVLKVRPVYNFFECENPSEPFGASVTIDGVTYGSGTASSKKLAKNKAARATLEILIPDFVKQTSEEKPKDSEELEYFNHISIEDSRVYELTSKAGLLSPYQILHECLKRNHGMGDTSIKFEVVPGKNQKSEYVMACGKHTVRGWCKNKRVGKQLASQKILQLLHPHVKNWGSLLRMYGRESSKMVKQETSDKSVIELQQYAKKNKPNLHILSKLQEEMKRLAEEREETRKKPKMSIVASAQPGGEPLCTVDV |  | binds |  |
| full length Drosha-GFP (enzyme, UniProt Q9NRR4 1-1374) MMQGNTCHRMSFHPGRGCPRGRGGHGARPSAPSFRPQNLRLLHPQQPPVQYQYEPPSAPSTTFSNSPAPNFLPPRPDFVPFPPPMPPSAQGPLPPCPIRPPFPNHQMRHPFPVPPCFPPMPPPMPCPNNPPVPGAPPGQGTFPFMMPPPSMPHPPPPPVMPQQVNYQYPPGYSHHNFPPPSFNSFQNNPSSFLPSANNSSSPHFRHLPPYPLPKAPSERRSPERLKHYDDHRHRDHSHGRGERHRSLDRRERGRSPDRRRQDSRYRSDYDRGRTPSRHRSYERSRERERERHRHRDNRRSPSLERSYKKEYKRSGRSYGLSVVPEPAGCTPELPGEIIKNTDSWAPPLEIVNHRSPSREKKRARWEEEKDRWSDNQSSGKDKNYTSIKEKEPEETMPDKNEEEEEELLKPVWIRCTHSENYYSSDPMDQVGDSTVVGTSRLRDLYDKFEEELGSRQEKAKAARPPWEPPKTKLDEDLESSSESECESDEDSTCSSSSDSEVFDVIAEIKRKKAHPDRLHDELWYNDPGQMNDGPLCKCSAKARRTGIRHSIYPGEEAIKPCRPMTNNAGRLFHYRITVSPPTNFLTDRPTVIEYDDHEYIFEGFSMFAHAPLTNIPLCKVIRFNIDYTIHFIEEMMPENFCVKGLELFSLFLFRDILELYDWNLKGPLFEDSPPCCPRFHFMPRFVRFLPDGGKEVLSMHQILLYLLRCSKALVPEEEIANMLQWEELEWQKYAEECKGMIVTNPGTKPSSVRIDQLDREQFNPDVITFPIIVHFGIRPAQLSYAGDPQYQKLWKSYVKLRHLLANSPKVKQTDKQKLAQREEALQKIRQKNTMRREVTVELSSQGFWKTGIRSDVCQHAMMLPVLTHHIRYHQCLMHLDKLIGYTFQDRCLLQLAMTHPSHHLNFGMNPDHARNSLSNCGIRQPKYGDRKVHHMHMRKKGINTLINIMSRLGQDDPTPSRINHNERLEFLGDAVVEFLTSVHLYYLFPSLEEGGLATYRTAIVQNQHLAMLAKKLELDRFMLYAHGPDLCRESDLRHAMANCFEALIGAVYLEGSLEEAKQLFGRLLFNDPDLREVWLNYPLHPLQLQEPNTDRQLIETSPVLQKLTEFEEAIGVIFTHVRLLARAFTLRTVGFNHLTLGHNQRMEFLGDSIMQLVATEYLFIHFPDHHEGHLTLLRSSLVNNRTQAKVAEELGMQEYAITNDKTKRPVALRTKTLADLLESFIAALYIDKDLEYVHTFMNVCFFPRLKEFILNQDWNDPKSQLQQCCLTLRTEGKEPDIPLYKTLQTVGPSHARTYTVAVYFKGERIGCGKGPSIQQAEMGAAMDALEKYNFPQMAHQKRFIERKYRQELKEMRWEREHQEREPDETEDIKK |  | binds |  |
